Results as given in patent publication US20050277664A1, “Monoamine neurotransmitter re-uptake inhibitor for the inhibition of beta-amyloid generation” (Boehringer Ingelheim International GmbH, priority 2004, published 2005).

Key:
[1] = test system: cerebral Aβ42 levels in APPtg mice; experiment: Cerebral Aβ42 levels in APPtg mice after oral treatment; type: in vivo
Protocol: (§1) APPtg mice at 3 to 4 months of age were used. A compound of formula (IA) was prepared and administered in a suspension of 0.5% Tylose solution.
(§2) Controls were treated with Tylose only. Each group consisted of 12 or 13 mice with equal numbers of each sex. In the short term study, the animals were treated for the time period of 2.5 days. Twice a day, a dose of 3 mg/kg was applied with interruption times of 11.5-12.5 hours. On the last day (day of sacrifice), one dose of 3 mg/kg was administered and the mice were sacrificed 5.5 hours later. […] In a second long term four weeks study, 3 mg/kg/day of compound of formula IA were administered, subdivided into two subdoses, with an interruption time of 10-12 hours during the day. Each version of the in vivo experiments has been performed once.
(§3) The murine brains were rapidly removed from the skull and divided along the medial fissure. The cerebellum was removed before each half was quickly frozen down on a metal plate that had been cooled down on dry ice. Brains were placed in Eppendorf tubes, frozen in liquid nitrogen, and stored at −80° C. until needed for Aβ extractions or compound measurements.
(§4) Brains were thawed on ice. […] The post nuclear supernatants containing the soluble Aβ were collected and measured in a Sandwich ELISA (s.a.). […]

[2] = test system: cerebral Aβ40 levels in APPtg mice; experiment: Cerebral Aβ40 levels in APPtg mice after oral treatment; type: in vivo
Protocol: as §1, §2, §3, §4

[3] = per os, 2 weeks, 3.3 mg/kg/day, mean ± SEM

COc1cc2c(cc1OC)C(=O)C(CC1CCN(Cc3ccccc3)CC1)C2 (stereo not shown) [Donepezil, reference compound]
Level of Aβ42, reduction (−) and/or stimulation (+) of cerebral Aβ levels [1, 3]: −7.6 ± 7.1% | decrease of Aβ42 levels ([1]; two weeks, 3.3 mg/kg once a day, p=0.402): 7.6% | Level of Aβ40, reduction (−) and/or stimulation (+) of cerebral Aβ levels [2, 3]: +9.6 ± 3.1 % | increase of Aβ40 levels ([2]; two weeks, 3.3 mg/kg once a day, p=0.022): 9.6%
